Experimental data reported in patent US9856290B2, “Glycopeptide compositions and uses thereof” (SUSSEX RESEARCH LABORATORIES INC., priority 2013, dated 2018).
Part of at least one peptide drawing is inferred or uncertain, most often the ends. Marks after values point to notes of the source that are not given here. Where a SMILES comes first, the peptide text is derived from it.

What was measured:
Assay type in all cases: cell-based
[1] = system: Human Dermal Fibroblasts (KMST-6); experiment: ECM ELISA assay: elastin secretion by human dermal fibroblasts; settings: 5 μM; for Elastin Secretion at 48 hours: KMST-6, 48 hours; for Elastin Secretion at 48 hours / Elastin Secretion at 72 hours: % compared to control set at 100%, normalized to total protein; for Elastin Secretion at 72 hours / ELASTIN (ECM Protein Summary Table): KMST-6, 72 hours; for ELASTIN (ECM Protein Summary Table): control 100%
Experimental: (§1) KMST-6 cells (Japan Health Sciences Foundation, JCRB0433) were seeded at 7,000 cells/ml in 12-well tissue culture treated plates (Falcon, 353043) in complete media. The complete media consisted of the following: MEM/EBSS (Hyclone, SH30024.01), 10% Heat-Inactivated FBS (Gibco, 10082-147), 1% L-Glutamine (Hyclone, SH30031.01), 1% Nucleosides (800 mg/L Adenosine, 850 mg/L Guanidine, 730 mg/L Cytidine, 730 mg/L Uridine and 240 mg/L Thymidine), 1% Penicillin/Streptomycin (HyClone, SV30010), 1% Sodium Pyruvate (HyClone, SH30239.01), 1% Non-Essential Amino Acids (Hyclone, SH30238.01) and 0.04% Gentamicin (Gibco, 15710-064). Cells were grown for 2 days prior to treatments. The media was aspirated and cells were washed with 1×PBS (Fisher, SH30256.01) and treated with 5 μM (1 mL/well) glycopeptides, reference (Pal-KTTKS, CPC Scientific, 822197), and control (DMSO, Fisher, BP231-100) in serum-free media supplemented with 50 μg/mL Sodium Ascorbate (Sigma, A4034) and 80 μg/mL β-Aminopropionate Fumarate (Sigma, A3134). The treated cells were incubated at 37° C. and 5% CO2 for 48 and 72 hours. At each timepoint, media from each treatment was collected and centrifuged at 1500 RPM for 15 minutes at 4° C. The supernatant was collected and stored at −80° C. for extracellular matrix protein quantification. The following kits were used for quantification of ECM proteins: Fibronectin (Takara, MK115) and Elastin (Uscn Life Science Inc., E91337Hu). The cells were harvest and lysed with 250 μL Lysis Buffer (20 mM Tris-HCl (Sigma, T1503), 137 mM NaCl (Sigma, S9888), 2 mM EDTA (Fisher, BP118), 1% IGEPAL (Sigma, 18896), 10% Glycerol (Sigma, G5516), 100 μM PMSF (Fisher, 36978) and 10 μg/mL Leupeptin (Sigma-Aldrich, L2884). They were placed on a container of ice on a plate shaker (Lab-Line Instruments, 3595) for 30 minutes. The lysate was centrifuged at 10,000 g for 5 minutes at 4° C. The supernatant was collected and used for protein quantification (BioRad, 500-0112).
(§2) To determine effects on extracellular matrix protein secretion, 5 μM of individual glycopeptides were incubated with Human Dermal Fibroblasts (KMST-6). The control sample cells were treated with DMSO (Fisher, BP231-100). As described previously, supernatant was collected from treated cells (at two time-points, 48 and 72 hours of treatment) and stored at −80° C. for subsequent extracellular matrix protein quantification using ELISA kits (Fibronectin (Takara, MK115), Elastin (Uscn Life Science Inc., E91337Hu). For the determination of total cellular protein, treated cells were harvested and lysed. The lysate was centrifuged, the supernatant was collected and then used for protein quantification (BioRad, 500-0112). ELISA plates were read on the plate reader (Molecular Devices) at absorbance of 450 nm and SoftMax Pro software was used to compute the μg/ml values of protein of interest derived from the generated 4-parameter fit standard curve. Each μg/ml of protein secreted was normalized to total protein per well. The data was analysed by averaging out normalized values from at least three independent experiments and presenting them as a % compared to control treatment set at 100% (Table 2-5). Statistical significance was performed using One-way ANOVA (p<0.05) where “*” represents statistical significance when compared to control and “#” represents statistical significance when compared to reference. […]

[2] = system: MatTek's EpiDermFT 3D human in vitro skin model; experiment: Elastin assessment in 3D human in vitro skin model; settings: 5 μM, 72 hours post treatment
[3] = system: Human Dermal Fibroblasts (KMST-6); experiment: Total Collagen Assay (Sirius Red Collagen Detection Kit); settings: 5 μM; for increased total collagen secretion compared to control: 72 hours, versus DMSO control; for TOTAL COLLAGEN (ECM Protein Summary Table): KMST-6, 72 hours, control 100%
Experimental: KMST-6 cells (Japan Health Sciences Foundation, JCRB0433) were seeded at 7,000 cells/mL in 60 mm tissue culture treated plates (Falcon, 353002) in complete media. The complete media consisted of the following: MEM/EBSS (Hyclone, SH30024.01), 10% Heat-Inactivated FBS (Gibco, 10082-147), 1% L-Glutamine (Hyclone, SH30031.01), 1% Nucleosides (800 mg/L Adenosine, 850 mg/L Guanidine, 730 mg/L Cytidine, 730 mg/L Uridine and 240 mg/L Thymidine), 1% Penicillin/Streptomycin (HyClone, SV30010), 1% Sodium Pyruvate (HyClone, SH30239.01), 1% Non-Essential Amino Acids (Hyclone, SH30238.01) and 0.04% Gentamicin (Gibco, 15710-064). Cells were grown for 2 days prior to treatments. The cells were washed with 1×PBS (Fisher, SH30256.01) and treated with 5 μM glycopeptides (GP003-9, GP004-3, GP004-4), reference (Pal-KTTKS, CPC Scientific, 822197), and control (DMSO, Fisher, BP231-100) in serum-free media supplemented with 50 µg/mL Sodium Ascorbate (Sigma, A4034) and 80 μg/mL β-Aminopropionate Fumarate (Sigma, A3134). The treated cells were incubated at 37° C. and 5% CO2 for 48 and 72 hours. At each timepoint, media from each treatment was collected and centrifuged at 1500 RPM for 15 minutes at 4° C. The supernatant was collected and stored at −80° C. for extracellular matrix protein quantification. The following kit was used for quantification of total collagen: Sirius Red Collagen Detection Kit (Chondrex Inc., 9062). The cells were harvested and lysed with Lysis Buffer (20 mM Tris-HCl (Sigma, T1503), 137 mM NaCl (Sigma, S9888), 2 mM EDTA (Fisher, BP118), 1% IGEPAL (Sigma, 18896), 10% Glycerol (Sigma, G5516), 100 μM PMSF (Fisher, 36978) and 10 μg/mL Leupeptin (Sigma, L2884)). They were placed on a container of ice on an orbital shaker (VWR, 89032-088) for 30 minutes. The cell lysate was centrifuged at 10,000 g for 5 minutes at 4° C. The supernatant was collected and used for protein quantification (BioRad, 500-0112).
To confirm effects on extracellular matrix protein secretion, Human dermal fibroblasts (KMST-6) were treated with 5 μM glycopeptides [GP001-1 (Pal-KT(Ac4-Glc)TKS-OH), GP002-3 ((Pal-KTTKS(Ac4-Glc)-OH), GP002-7 (Pal-KTTKS(Ac4-Gal)-OH), GP003-9 (Pal-KT(Ac7-β-Mal)TKS-OH), GP004-3 (Pal-KTT(Ac7-β-Mal)KS-OH) and GP004-4 (Pal-KTTKS(Ac7-β-Mal)-OH) (SEQ ID Nos: 4, 8, 7, 6, 9 and 10, respectively)], reference (Pal-KTTKS (SEQ ID NO: 2), CPC Scientific, 822197) or vehicle control (DMSO, Fisher, BP231-100) for 72 hours. Three or more independent experiments were performed. Statistical significance was performed using One-way ANOVA (p<0.05) where ‘*’ represents statistical significance when compared to control and “#” represents statistical significance when compared to reference.

[4] = system: Human Dermal Fibroblasts (KMST-6); experiment: ECM ELISA assay: fibronectin secretion by human dermal fibroblasts; settings: 5 μM; for increased fibronectin secretion compared to control: versus DMSO control; for Fibronectin secretion at 48 hours: KMST-6, 48 hours; for Fibronectin secretion at 48 hours / Fibronectin Secretion at 72 hours: % compared to control set at 100%, normalized to total protein; for Fibronectin Secretion at 72 hours / FIBRONECTIN (ECM Protein Summary Table): KMST-6, 72 hours; for FIBRONECTIN (ECM Protein Summary Table): control 100%
Experimental: as §1, §2

[5] = 72 hours, versus Pal-KTTKS reference

## CCCCCCCCCCCCCCCC(=O)N[C@@H](CCCCN)C(=O)N[C@H](C(=O)N[C@H](C(=O)N[C@@H](CCCCN)C(=O)N[C@@H](CO)C(=O)O)[C@@H](C)O)[C@@H](C)O[C@@H]1O[C@H](COC(C)=O)[C@@H](O[C@H]2O[C@H](COC(C)=O)[C@@H](OC(C)=O)[C@H](OC(C)=O)[C@H]2OC(C)=O)[C@H](OC(C)=O)[C@H]1OC(C)=O [GP003-9, Pal-KT(Ac7-β-Mal)TKS-OH]
[1]; 72 hours
  biological activity in elastin secretion compared to control: greater biological activity
[1]; 72 hours, versus DMSO control
  increased elastin secretion compared to control: 184%
[1]; [5]
  increased secretion of elastin compared to the reference peptide: 151%
[1]
  Elastin Secretion at 48 hours: 255.8* %
  Elastin Secretion at 72 hours: 283.6* %
  ELASTIN (ECM Protein Summary Table): 284*^# %
[2]
  elastin secretion in a 3D human skin model in comparison to unglycosylated reference peptide or control: approximately 1.5 fold
[3]
  increased total collagen secretion compared to control: 25%
  TOTAL COLLAGEN (ECM Protein Summary Table): 125* %
[4]; 72 hours
  biological activity in fibronectin secretion compared to control: greater biological activity
  increased fibronectin secretion compared to control: 40%
[4]
  Fibronectin secretion at 48 hours: 161.4* %
  Fibronectin Secretion at 72 hours: 140.4* %
  FIBRONECTIN (ECM Protein Summary Table): 140* %

## CCCCCCCCCCCCCCCC(=O)N[C@@H](CCCCN)C(=O)N[C@H](C(=O)N[C@H](C(=O)N[C@@H](CCCCN)C(=O)N[C@@H](CO[C@@H]1O[C@H](COC(C)=O)[C@@H](O[C@H]2O[C@H](COC(C)=O)[C@@H](OC(C)=O)[C@H](OC(C)=O)[C@H]2OC(C)=O)[C@H](OC(C)=O)[C@H]1OC(C)=O)C(=O)O)[C@@H](C)O)[C@@H](C)O [GP004-4, Pal-KTTKS(Ac7-β-Mal)-OH]
[1]; 72 hours
  biological activity in elastin secretion compared to control: greater biological activity
[1]
  Elastin Secretion at 48 hours: 190.0%
  Elastin Secretion at 72 hours: 185.5%
  ELASTIN (ECM Protein Summary Table): 186%
[3]
  increased total collagen secretion compared to control: 24%
  TOTAL COLLAGEN (ECM Protein Summary Table): 124* %
[4]; 72 hours
  biological activity in fibronectin secretion compared to control: greater biological activity
  increased fibronectin secretion compared to control: 83%
[4]; [5]
  increased fibronectin secretion compared to reference: 65%
[4]
  Fibronectin secretion at 48 hours: 145.7%
  Fibronectin Secretion at 72 hours: 182.7* %
  FIBRONECTIN (ECM Protein Summary Table): 183*^# %

## CCCCCCCCCCCCCCCC(=O)N[C@@H](CCCCN)C(=O)N[C@H](C(=O)N[C@H](C(=O)N[C@@H](CCCCN)C(=O)N[C@@H](CO)C(=O)O)[C@@H](C)O)[C@@H](C)O [Reference, Pal-KTTKS] (HELM PEPTIDE1{[CCCCCCCCCCCCCCCC(=O)[*:2]].K.T.T.K.S}$$$$V2.0)
[1]
  ELASTIN (ECM Protein Summary Table): 133%
[3]
  TOTAL COLLAGEN (ECM Protein Summary Table): 110%
[4]
  FIBRONECTIN (ECM Protein Summary Table): 118%
